# Reference: US20110088107A1, “COMPOSITIONS AND METHODS FOR DERIVING OR CULTURING PLURIPOTENT CELLS” (priority 2009, published 2011)
# At least one compound was matched to its structure with a doubt left.
# Assays:
# C1.2 hiPSCs = test: Screen for factors stabilizing C1 hiPSCs upon DOX withdrawal; assay type: cell-based, human
# Description: FIGS. 9(A)-9(D) show the in vitro stabilization of naïve human pluripotent stem cells. […] C1 cells were plated on feeders in N2B27 media with the indicated factors. p-values using student's t-test indicates significant change in comparison to cells grown in DOX/PD/CH/LIF conditions, which were defined as a control (100% survival). (B) Scheme for reverting hESCs to generate “naive-hESCs”. (C) Representative images of WIBR3 hESCs at different stages of the reversion process in PD/CH/LIF/FK (P indicates passage number). (D) Representative images of naive-WIBR3.5 hESC line, derived by plating WIBR3 hESCs in PD/CH/FK/LIF medium without transfection of exogenous factors. Magnifications of captured images are indicated. Naïve human pluripotent cells were grown in serum-free N2B27 based media. […] Throughout the manuscript, indicated passage numbers of naïve-hiPSC/hESCs indicates number of passages counted after induction of the naïve state. […]
# Klf2 and Klf4 expression = test: Quantitative RT-PCR after forskolin treatment; assay type: cell-based, human; conditions: 10 mM of forskolin (FK) for 48 hours
structure (smiles),measurement,setting,value
C=C[C@@]1(C)CC(=O)[C@]2(O)[C@@]3(C)[C@@H](O)CCC(C)(C)[C@@H]3[C@H](O)[C@H](OC(C)=O)[C@@]2(C)O1 [Forskolin],role in the 13i+LIF cocktail on removing one inhibitor at a time,C1.2 hiPSCs; C1.2 hiPSCs without DOX,crucial components
same,stabilization of C1 hiPSCs in the absence of DOX,C1.2 hiPSCs; N2B27 media,stabilizes C1 hiPSCs independently of DOX
same,Klf2 and Klf4 expression,Klf2 and Klf4 expression,induction of Klf2 and Klf4 expression
